Reference: publication PMC7042730
No constants are given. Whether binding was seen depends on the method and setting. Binding seen in cells or lysates may run through a third protein. Some binding calls cover weakened binding; strength is not graded here.

By UniProt entry, the sequences of proteins in these tests, tags left out.
UniProt P63141: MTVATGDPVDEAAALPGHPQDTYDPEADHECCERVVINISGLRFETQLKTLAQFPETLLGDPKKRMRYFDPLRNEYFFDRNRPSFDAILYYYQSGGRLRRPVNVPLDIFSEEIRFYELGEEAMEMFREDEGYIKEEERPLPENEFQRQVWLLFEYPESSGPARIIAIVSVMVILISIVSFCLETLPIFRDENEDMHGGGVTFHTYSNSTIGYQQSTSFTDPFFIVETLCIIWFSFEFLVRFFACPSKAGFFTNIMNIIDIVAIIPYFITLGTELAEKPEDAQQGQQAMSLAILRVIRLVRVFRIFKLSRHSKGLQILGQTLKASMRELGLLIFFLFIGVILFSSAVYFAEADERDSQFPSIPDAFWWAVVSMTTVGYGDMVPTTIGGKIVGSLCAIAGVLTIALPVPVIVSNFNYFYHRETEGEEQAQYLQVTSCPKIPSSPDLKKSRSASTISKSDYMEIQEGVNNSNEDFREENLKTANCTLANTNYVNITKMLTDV
UniProt O55242: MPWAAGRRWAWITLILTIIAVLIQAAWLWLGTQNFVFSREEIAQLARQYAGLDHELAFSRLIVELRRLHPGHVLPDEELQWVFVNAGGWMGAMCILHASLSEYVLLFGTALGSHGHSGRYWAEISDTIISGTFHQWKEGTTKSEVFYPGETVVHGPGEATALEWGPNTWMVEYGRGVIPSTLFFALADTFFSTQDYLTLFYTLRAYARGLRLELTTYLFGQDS
UniProt P11881: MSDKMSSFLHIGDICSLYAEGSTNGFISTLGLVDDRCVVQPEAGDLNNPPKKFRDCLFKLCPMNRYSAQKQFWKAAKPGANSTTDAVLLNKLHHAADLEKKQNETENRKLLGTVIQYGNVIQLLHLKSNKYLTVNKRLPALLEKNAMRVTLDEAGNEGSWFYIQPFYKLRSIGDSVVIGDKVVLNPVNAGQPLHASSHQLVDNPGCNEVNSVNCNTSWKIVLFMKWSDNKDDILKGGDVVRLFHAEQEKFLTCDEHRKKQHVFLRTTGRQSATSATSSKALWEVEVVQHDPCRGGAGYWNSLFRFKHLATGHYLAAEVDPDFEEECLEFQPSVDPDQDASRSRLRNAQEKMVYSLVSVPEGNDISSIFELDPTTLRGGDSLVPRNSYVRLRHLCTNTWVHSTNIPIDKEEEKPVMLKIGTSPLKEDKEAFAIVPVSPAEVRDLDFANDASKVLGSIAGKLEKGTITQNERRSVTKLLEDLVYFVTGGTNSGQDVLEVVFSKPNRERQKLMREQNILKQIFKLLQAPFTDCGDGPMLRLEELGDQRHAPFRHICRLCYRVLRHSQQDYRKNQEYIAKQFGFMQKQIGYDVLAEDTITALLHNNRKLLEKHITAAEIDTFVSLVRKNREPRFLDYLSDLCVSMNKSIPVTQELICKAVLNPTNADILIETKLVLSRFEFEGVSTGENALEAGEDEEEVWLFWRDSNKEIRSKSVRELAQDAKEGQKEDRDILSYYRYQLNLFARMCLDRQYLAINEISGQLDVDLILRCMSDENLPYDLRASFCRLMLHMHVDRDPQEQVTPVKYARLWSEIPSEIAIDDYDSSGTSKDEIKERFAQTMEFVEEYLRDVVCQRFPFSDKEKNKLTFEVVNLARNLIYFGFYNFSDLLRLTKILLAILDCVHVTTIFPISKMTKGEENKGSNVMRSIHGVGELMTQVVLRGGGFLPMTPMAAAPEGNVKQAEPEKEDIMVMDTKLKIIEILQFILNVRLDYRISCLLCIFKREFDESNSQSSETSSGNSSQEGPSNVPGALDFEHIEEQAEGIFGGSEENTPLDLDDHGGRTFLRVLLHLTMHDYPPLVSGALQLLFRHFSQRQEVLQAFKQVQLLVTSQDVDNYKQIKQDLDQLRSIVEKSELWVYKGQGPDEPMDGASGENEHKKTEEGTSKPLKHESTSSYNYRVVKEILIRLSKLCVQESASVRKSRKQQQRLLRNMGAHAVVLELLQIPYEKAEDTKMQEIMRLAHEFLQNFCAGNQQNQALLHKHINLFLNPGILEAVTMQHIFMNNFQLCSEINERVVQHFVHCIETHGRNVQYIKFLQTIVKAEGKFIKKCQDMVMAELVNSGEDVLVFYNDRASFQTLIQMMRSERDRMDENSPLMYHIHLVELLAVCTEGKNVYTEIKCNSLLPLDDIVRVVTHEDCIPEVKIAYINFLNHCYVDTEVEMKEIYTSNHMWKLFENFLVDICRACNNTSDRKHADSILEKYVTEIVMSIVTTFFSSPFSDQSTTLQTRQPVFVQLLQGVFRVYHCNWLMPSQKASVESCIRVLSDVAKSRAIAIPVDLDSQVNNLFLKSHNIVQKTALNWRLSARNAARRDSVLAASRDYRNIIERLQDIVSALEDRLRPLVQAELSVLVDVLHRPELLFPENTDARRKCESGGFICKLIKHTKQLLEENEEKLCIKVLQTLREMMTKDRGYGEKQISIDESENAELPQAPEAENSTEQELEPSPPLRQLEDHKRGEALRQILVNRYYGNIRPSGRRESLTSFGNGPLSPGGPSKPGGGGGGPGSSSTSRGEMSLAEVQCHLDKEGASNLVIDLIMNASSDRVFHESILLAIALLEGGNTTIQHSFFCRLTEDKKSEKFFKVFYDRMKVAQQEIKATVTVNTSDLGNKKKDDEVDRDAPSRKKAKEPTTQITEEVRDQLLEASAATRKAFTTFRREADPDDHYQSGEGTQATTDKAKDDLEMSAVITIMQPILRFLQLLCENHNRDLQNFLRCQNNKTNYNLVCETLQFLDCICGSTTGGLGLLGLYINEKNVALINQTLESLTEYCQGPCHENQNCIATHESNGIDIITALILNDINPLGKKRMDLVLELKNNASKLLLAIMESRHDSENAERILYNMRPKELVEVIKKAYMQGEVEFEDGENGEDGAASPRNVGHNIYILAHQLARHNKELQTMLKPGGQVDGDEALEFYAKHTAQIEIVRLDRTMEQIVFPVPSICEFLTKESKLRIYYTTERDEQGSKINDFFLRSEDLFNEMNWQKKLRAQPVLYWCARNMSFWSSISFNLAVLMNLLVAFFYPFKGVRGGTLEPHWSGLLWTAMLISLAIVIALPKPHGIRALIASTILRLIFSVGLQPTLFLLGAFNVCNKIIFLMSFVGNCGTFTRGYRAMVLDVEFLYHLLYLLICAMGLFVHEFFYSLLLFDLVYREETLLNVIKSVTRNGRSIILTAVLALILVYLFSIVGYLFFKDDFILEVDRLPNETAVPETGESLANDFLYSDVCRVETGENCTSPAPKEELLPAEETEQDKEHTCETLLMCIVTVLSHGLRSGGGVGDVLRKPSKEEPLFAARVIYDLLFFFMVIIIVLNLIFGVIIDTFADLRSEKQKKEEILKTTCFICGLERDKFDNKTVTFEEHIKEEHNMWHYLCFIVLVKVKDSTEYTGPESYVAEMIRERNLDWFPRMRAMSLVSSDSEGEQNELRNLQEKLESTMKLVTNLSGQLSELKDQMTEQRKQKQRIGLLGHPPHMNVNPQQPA

Legend:
[1] = molecular target: Kv1.2 potassium channel, endogenous in nucleus accumbens shell (mouse (endogenous in NAcSh tissue)) (UniProt P63141); test: co-IP; NAcSh tissue lysates from brain slices (saline or cocaine 3 μM, 1 h; also tissue from in vivo cocaine-treated mice); immunoprecipitated with anti-Kv1.2 antibody, western blot with anti-Kv1.2 and anti-σ1
[2] = molecular target: σ1-V5-His (wild-type sigma-1 receptor) (UniProt O55242); test: co-IP; HEK293T cells stably overexpressing IP3R1 and wtσ1-V5 or Δσ1-V5 (control or tunicamycin 20 μg/mL, 2 h); immunoprecipitated with anti-V5 antibody, western blot with anti-IP3R1 and anti-V5
[3] = molecular target: Kv1.2 expressed in HEK293T cells (pCMV6-Kv1.2) (UniProt P63141); test: co-IP; HEK293T cells stably expressing Kv1.2, transfected with wtσ1-V5 or Δσ1-V5 (saline, cocaine 3 μM 1 h, BD1063 500 nM); lysates immunoprecipitated with anti-Kv1.2 antibody, western blot with anti-Kv1.2 and anti-V5

sigma-1 receptor (σ1), endogenous in nucleus accumbens shell (from UniProt O55242 1-223)
binding [1]: binds

IP3 receptor type 1 (IP3R1) overexpressed in HEK293T cells (from UniProt P11881 1-2749)
binding [2]: binds

σ1-V5-His (wild-type sigma-1 receptor) (from UniProt O55242 1-223)
binding [3]: binds
